Measured values reported in patent publication US12570688.
Results are given in words; binding and its absence hold for the method and conditions named. Some binding calls cover weakened binding; strength is not graded here. Tags and fused reporters may be left off the sequences shown.

Biological target: T1, SENP1 (UniProt Q9P0U3)
T1 sequence (looked up): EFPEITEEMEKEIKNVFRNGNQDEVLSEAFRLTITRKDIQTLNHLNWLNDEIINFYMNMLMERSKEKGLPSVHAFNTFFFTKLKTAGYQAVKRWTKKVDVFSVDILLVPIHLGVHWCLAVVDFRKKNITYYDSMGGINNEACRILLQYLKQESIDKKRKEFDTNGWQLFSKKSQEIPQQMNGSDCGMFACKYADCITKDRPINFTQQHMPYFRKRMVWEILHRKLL
Test: covalent adduct formation, gel (FIG. 4C)

binding: binds
B1: FLAG-SUMO4-propargylamine conjugate (protein, UniProt Q6EEV6 1-92, looked up, not shown: small tags and cut ends)
chain: MANEKPTEEVKTENNNHINLKVAGQDGSVVQFKIKRQTPLSKLMKAYAEPRGLSVKQIRFRFGGQPISGTDKPAQLEMEDEDTIDVFQQPTG
modifications: C-terminal glycine replaced by propargylamine (Pa)
